The source of these data is patent publication US20060117402A1.

This test addresses nuclear lamin bait. Kind of test: yeast two-hybrid, LEU2 reporter growth on SC-Leu.

Results are given in words; binding and its absence hold for the method and conditions named.

B1: Group 2 positive clone (clone 20), two-hybrid library clone encoding the arm repeat protein ARIA (At5g19330) (protein, not shown: large carriers)
chain: ERREGRSFPERKGQKRKLEEGAAAVEDREISAVSTDGGQALLSEVAAQVSVLNSAFSWQESDRAAAKRATQVLAELAKNEDLVNVIVDGGAVPALMTHLQAPPYNDGDLAEKPYEHEVEKGSAFALGLLAIKPEYQKLIVDKGALPHLVNLLKRNKDGSSSRAVNSVIRRAADAITNLAHENSSIKTRVRVEGGIPPLVELLEFSDSKVQRAAAGALRTLAFKNDDNKNQIVECNALPTLILMLGSEDAAIHYEAVGVIGNLVHSSPHIKKEVLTAGALQPVIGLLSSCCPESQREAALLLGQFASTDSDCKVHIVQRGAVRPLIEMLQSPDVQLKEMSAFALGRLAQDAHNQAGIAHSGGLGPLLKLLDSRNGSLQHNAAFALYGLADNEDNVSDFIRVGGIQKLQDGEFIVQATKDCVSKTLKRLEEKIHGRVLRHLLYLMRISEKSIQRRVALALAHLCSPEDQRTIFIDDNGLELLLGLLGSLNTKQQLDGAAALYKLANKSMALSPVDAAPPSPTQRVYLGEQYVNNATLSDVTFLVEGRTFYAHRICLLASSDAFRAMFDGGYREKDARDIEIPNIKWEVFELMMRFIYTGSVDITNEISKDLLRAADQYLLEGLKRLCEYTIAQDITLESIGDMYELSEAFHAMSLRQACIMFILEHFDKLSSMPWQNELVQRTIPEIREYFCRALTKSTTNLQSLRL
On to B1, for which the binding result was “no binding”.
